In PubChem BioAssay AID493014 (National Center for Advancing Translational Sciences (NCATS), 2011) one finds AC50 data, which are given here for 64 compounds.

A short description of the test: qHTS Assay to Find Inhibitors of Chronic Active B-Cell Receptor Signaling. Particulars: ABC-DLBCL IkBa-CBG/CBR reporter, luminescence ratio (green luciferase fused to IkBa over red control in TMD8 lymphoma cells), 4 h. The essentials: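 Compounds up to 46 uM were incubated four hours with TMD8 cells whose green CBG68 luciferase is fused to IkappaBalpha; red CBR luminescence normalised the signal, and concentration-effect curves were fitted to fusion, red and ratio data.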

Setting [1] is: measured here: CBR red luminescence, cell number.
[2] abbreviates: measured here: IkBa-CBG green luminescence.

The other results are listed elsewhere or left out. These are further read-outs of the screen, such as a control signal, another cell line or another target. No call is given for them. The list favours compounds with an active or inconclusive main result. Potencies come from curve fits of mixed quality, noted in brackets.

On to `c1ccc(-n2ncc3c(NCc4ccco4)ncnc32)cc1`, for which the AC50 under setting [1] was 7.31 µM [falling, partial curve].

For `COc1ccc(/C=N/c2c(-c3ccc(OC)cc3)nc3n2CCS3)cc1`, the AC50 under setting [1] is 32.6 µM [rising, partial curve, poor fit].

In the case of `c1ccc(-c2nnc(OCc3cccnc3)c3ccccc23)cc1`, the AC50 under setting [1] is 35.5 µM [rising, single point].

For `S=C(Nc1ccc2nccnc2c1)N1CCOCC1`, the AC50 under setting [1] is 35.5 µM [falling, single point].

`Cc1ccc(NC(=O)c2ccccc2[N+](=O)[O-])nc1`: the AC50 under setting [1] is 20.6 µM [falling, partial curve, poor fit].

In the case of `Oc1ccc(-c2nc3ccccc3s2)c(O)c1`, the AC50 under setting [1] is 0.1 µM [rising, full curve, poor fit].

Consider `O=C(c1cc(-c2ccccc2O)on1)N1CCc2ccccc2C1`, for which the AC50 under setting [1] was 10 µM [falling, single point].

`Cc1cccc(C)c1OCC(=O)NCc1nnc(SCC(=O)NC2CCCCC2)n1C`: the AC50 by setting is: under setting [1], 6.51 µM [rising, single point]; under setting [2], 5.8 µM [falling, partial curve, poor fit].

On to `O=C(Nc1ccc(C(=O)N2CCCCC2)cc1)C1=CSCCO1`, for which the AC50 under setting [1] is 8.91 µM [rising, partial curve, poor fit].

Take `O=C(C1CCN(Cc2ccc(F)cc2)CC1)N1CCN(C/C=C/c2ccccc2)CC1`: the AC50 under setting [1] is 22.4 µM [falling, single point].

For the compound `Cc1cc2nccc(-c3cccnc3)n2n1`, under setting [1], the AC50 is 25.1 µM [falling, single point].

In the case of `CCOC(=O)c1cnc2c(cnn2C)c1NCCC#N`, under setting [1], the AC50 was 9.2 µM [falling, partial curve, poor fit].

Take `O=C(CN1C(=O)NC2(CCCc3ccccc32)C1=O)c1ccc(F)c(F)c1` (configuration not stated): the AC50 under setting [1] was 29.1 µM [falling, single point].

Consider `Cc1csc2ncc(C(=O)NCCC(c3ccccc3)c3ccccc3)c(=O)n12`, for which the half-maximal activity concentration (AC50) under setting [1] is 20 µM [rising, partial curve, poor fit].

In the case of `CCC(C(=O)NCc1ccco1)N(C(=O)CNS(=O)(=O)c1ccccc1)c1ccc(OC)cc1` (configuration not stated), the AC50 under setting [1] was 20.6 µM [rising, single point].

Consider `O=S(=O)(NC1CCCCC1)c1ccc(F)c2ccccc12`, for which the AC50 under setting [1] was 25.9 µM [falling, single point].

Turning to `Cc1ccc(NC(=O)CSC2=C(C#N)C(c3ccco3)C3=C(CCCC3=O)N2)cc1` (configuration not stated), the AC50 under setting [1] is 4.47 µM [falling, partial curve, poor fit].

In the case of `O=C(c1ccc(N2CCOCC2)c([N+](=O)[O-])c1)N1CCN(S(=O)(=O)c2cccs2)CC1`, under setting [1], the AC50 is 35.5 µM [rising, partial curve, poor fit].

Turning to `O=C(/C=C/c1ccccc1Cl)Nc1cccc(S(=O)(=O)NC2=NCCCCC2)c1`, under setting [1], the concentration at half-maximal activity (AC50) is 18.4 µM [falling, partial curve].

With `CCC(=O)Nc1nc(C)c(-c2csc(Nc3cccc(O)c3)n2)s1`, the AC50 under setting [1] is 14.1 µM [falling, partial curve].

Consider `COc1cccc(Nc2nc3ccccc3c(=O)[nH]2)c1`, for which, under setting [1], the AC50 was 0.316 µM [rising, full curve, poor fit].

As to `Fc1ccc(-c2noc3ncnc(Nc4ccc(F)cc4F)c23)cc1`, the AC50 under setting [1] is 14.1 µM [rising, single point].

`Cc1ccc2c(Cl)c(C(=O)NCCCn3ccnc3)sc2c1`: under setting [1], the AC50 was 3.66 µM [falling, full curve, poor fit].

`CC(=NCc1ccco1)C1=C(O)c2ccccc2C1=O`: under setting [1], the AC50 is 11.2 µM [falling, single point].

`O=C(Nc1ccncc1)Nc1ccc(F)c(Cl)c1`: under setting [1], the AC50 is 3.16 µM [rising, partial curve, poor fit].

Turning to `CCOC(=O)c1c(NC(=O)CN2CCCCC2)sc2c1CCN(C(=O)OCC)C2`, the AC50 under setting [1] was 35.5 µM [falling, single point].

On to `Cc1cccc2sc(NC(=O)C3CCN(S(=O)(=O)c4cc([N+](=O)[O-])ccc4Cl)CC3)nc12`, for which the AC50 is 2.91 µM [falling, full curve] under setting [1] and 2.91 µM [rising, partial curve, poor fit] under setting [2].

For `CC1CCc2c(sc(NC(=O)CSc3nnc(-c4ccccc4)o3)c2C#N)C1` (configuration not stated), the AC50 under setting [1] was 7.31 µM [rising, partial curve].

Regarding `Cc1ccc(C)c(NC(=O)CN(C)S(=O)(=O)c2cccc3cccnc23)c1`, the AC50 under setting [1] is 20 µM [rising, single point].

Regarding `Cc1c(Cl)ccc2sc(NC(=O)c3ccco3)nc12`, the AC50 under setting [1] is 0.891 µM [falling, full curve, poor fit].

As for `Cc1nc2nc(Cc3ccccc3)[nH]n2c(=O)c1Cl`, the AC50 under setting [1] was 8.2 µM [falling, partial curve].

For the compound `COc1cccc2cc(-c3csc(NC(=O)CCC(=O)NCCCN4CCC(C)CC4)n3)c(=O)oc12`, the AC50 under setting [1] is 12.6 µM [falling, single point].

In the case of `Cc1cc2nnc(SCC(=O)Nc3ccc(Cl)cc3)n2c(N)n1`, under setting [1], the half-maximal activity concentration (AC50) is 0.891 µM [rising, full curve, poor fit].

For `Cc1ccc(NS(=O)(=O)c2cc(C(=O)OCC(=O)NCC3CCCO3)ccc2C)cc1` (configuration not stated), the AC50 under setting [1] was 5.62 µM [rising, single point].

Consider `O=C(O)CCCN1C(=O)/C(=C/c2cn(-c3ccccc3)nc2-c2cccs2)SC1=S`, for which the half-maximal activity concentration (AC50) under setting [1] is 1.12 µM [falling, full curve, poor fit].

`O=C(CCn1ccc2ccccc21)NC1CCCc2ccccc21` (configuration not stated): under setting [1], the AC50 was 4.11 µM [falling, full curve, poor fit].

For the compound `O=C(O/N=C/C1=C(Cl)c2ccccc2CC1)c1ccc(F)cc1`, the AC50 under setting [1] is 18.4 µM [rising, single point].

Take `COc1cccc(C(=O)/C=C/c2ccc(SC)cc2)c1`: the AC50 under setting [1] was 6.31 µM [falling, partial curve].

With `O=C1c2ccccc2S(=O)(=O)N1CC(O)Cn1c2ccccc2c2ccccc21` (configuration not stated), the AC50 under setting [1] was 12.6 µM [falling, partial curve].

For `O=C(c1sccc1Cl)N1CCN(Cc2ccc3c(c2)OCO3)CC1`, the AC50 under setting [1] is 3.98 µM [falling, partial curve, poor fit].

As for `Fc1ccc2nc(Nc3nc4c(s3)CCCC4)sc2c1`, the AC50 under setting [1] was 35.5 µM [falling, single point].

As to `O=C(CSc1ncccn1)NCCc1ccccc1`, the AC50 under setting [1] was 31.6 µM [rising, single point].

As for `CC1CCc2nn(CC(=O)NCCCN3CCCC3=O)cc2C1` (configuration not stated), under setting [1], the AC50 is 1.46 µM [falling, full curve, poor fit].

`CCc1sc(NC(=O)CN2CCC(C(N)=O)CC2)nc1-c1ccccc1`: under setting [1], the AC50 was 14.1 µM [falling, single point].

As for `CCSc1ccccc1C(=O)Nc1nc2ccccc2c(=O)[nH]1`, the AC50 is, setting by setting: under setting [1], 7.94 µM [falling, partial curve, poor fit]; under setting [2], 0.891 µM [rising, full curve].

Take `O=C(NC(=S)Nc1ccccc1Br)C1CCCC1`: the AC50 under setting [1] is 3.16 µM [falling, partial curve].

On to `CCC(C)C(=O)Nc1nccs1` (configuration not stated), for which the AC50 under setting [1] was 2.24 µM [falling, partial curve, poor fit].

On to `COc1ccc(CCNC(=O)/C=C/c2ccc(C)cc2)cc1OC`, for which the AC50 under setting [1] is 6.31 µM [rising, partial curve, poor fit].

Regarding `COc1cccc(C(=O)Nc2cc(C)on2)c1OC`, the AC50 under setting [1] is 7.08 µM [rising, partial curve, poor fit].

For `O=C(CSc1nccc(=O)[nH]1)c1cc2ccccc2o1`, the AC50 under setting [1] was 11.2 µM [falling, partial curve, poor fit].

As for `O=C(NNc1ncnc2c1cnn2-c1cccc(Cl)c1)c1ccco1`, the AC50 under setting [1] was 12.6 µM [falling, partial curve].

As for `C#CCOCCOCCOCCNc1nc(N2CCN(C(=O)CCCCCCCCCCNC(=O)[C@H]([C@@H](C)CC)n3cc(CCCCN=C(N)N)nn3)CC2)nc(N2CCN(C(=O)CCCCCCCCCCNC(=O)[C@@H]([C@H](C)O)n3cc(C)nn3)CC2)n1`, the AC50 under setting [1] was 14.6 µM [rising, partial curve].

`CC[C@](C)(O)c1cc2ccccc2c(=O)o1`: under setting [1], the AC50 was 2.31 µM [falling, single point].

As to `CCCSc1nc(N2CCOCC2)c2c(c1C#N)CC(C)(C)SC2`, the AC50 under setting [1] is 0.082 µM [falling, partial curve, poor fit].

Turning to `CC(=O)Nc1ccc(N/C=C/C(=O)c2ccco2)cc1`, the AC50 under setting [1] is 14.6 µM [falling, partial curve, poor fit].

As for `CC(C)c1ccc(C(=O)NNC(=O)c2n[nH]c(=O)c3ccccc23)cc1`, the AC50 under setting [1] was 29.1 µM [rising, single point].

Consider `COc1ccc(OC)c(NC(=O)Cc2csc(NC(=O)Nc3ccccc3OC)n2)c1`, for which the AC50 under setting [1] was 16.4 µM [falling, single point].

On to `Cc1nc(CSc2ccc(Br)cc2)cs1`, for which the AC50 under setting [1] was 2.82 µM [rising, full curve].

Regarding `COc1ccccc1-n1nnnc1SCC(=O)Nc1ccccn1`, under setting [1], the AC50 was 4.11 µM [falling, full curve].

Turning to `c1ccc(-c2cc(-c3ccccc3)on2)cc1`, under setting [1], the AC50 was 0.891 µM [rising, partial curve, poor fit].

On to `COc1ccc(OC)c(-c2[nH]nc3c2C(c2ccco2)C(C#N)=C(N)O3)c1` (configuration not stated), for which the AC50 under setting [1] is 18.4 µM [falling, single point].

Consider `COCCn1c(CN2CCN(c3cccc(Cl)c3)CC2)nc2c1c(=O)n(C)c(=O)n2C`, for which the concentration at half-maximal activity (AC50) under setting [1] was 22.4 µM [falling, single point].

Take `Cc1cc(C(C)(C)C)oc1C(=O)N(CC(=O)NC1CCCC1)c1cccc(C(F)(F)F)c1`: under setting [1], the AC50 was 14.6 µM [falling, partial curve, poor fit].

In the case of `COc1ccc(N(CC(=O)NC2CCCC2)C(=O)c2ccc(N3CCCCC3)nc2)cc1`, under setting [1], the AC50 is 6.31 µM [rising, partial curve, poor fit].
